Data as given in PubChem BioAssay AID2685 (National Center for Advancing Translational Sciences (NCATS), 2010).
The other results are listed elsewhere or left out. Further columns of the screen follow, without active or inactive calls. Most of these compounds were active or inconclusive in the main read-out, so they are no random draw. Words in brackets tell the shape of the fitted curve; partial curves, single points and poor fits give uncertain potencies.

Test: qHTS Assay for Lipid Storage Modulators in Drosophila S3 Cells;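 on cell number change: cells counted by Cell Tracker Red CMTPX staining in the red channel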
Details: BODIPY lipid droplet fluorescence, 18-24 h; for cell number change: measured here: cell count max response, cells fed with added oleic acid
Outline: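 Drosophila S3 cells loaded with oleic acid (400 uM, as added) and compounds at several concentrations; lipid droplets imaged by 488-nm laser-scanning cytometry, 500–530 nm intensity and object ratio to cell channel. Percent activity normalized to 20 uM Triacsin C.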

[1] = measured here: lipid fluorescence (Fed channel) AC50, cells fed with added oleic acid
[2] = measured here: cell number channel AC50, cells fed with added oleic acid

Row | Compound | AC50 [1] | cell number change | AC50 [2]
1 | CCOc1ccc(CCNC(=O)C2CCN(c3nn4c(=O)cc(C)nc4s3)CC2)cc1OCC | 0.13 µM [falling, full curve, poor fit] | – | –
2 | CCN(CC)CCCN1C(=O)C(=O)/C(=C(/O)c2ccc(Cl)cc2)C1c1ccccn1 (stereo not given) | 20.6 µM [falling, single point] | -7.71% | –
3 | CCO[C@H]1OC(C(=O)O)=C[C@@H](c2ccc(C(F)(F)F)cc2)[C@@H]1CCCO | 0.00461 µM [falling, full curve, poor fit] | -0.795% | –
4 | CNC(=O)c1ccc(OCc2ccccc2)c(OC)c1 | 5.8 µM [rising, single point] | 0.674% | –
5 | COc1ccc(C(CNC(=O)c2sccc2C)N2CCOCC2)cc1 (stereo not given) | 6.51 µM [rising, partial curve, poor fit] | 13.8% | 6.51 µM [rising, single point]
6 | CCC1CCCCN1CCCNC(=O)c1nn(C)c2c1CS(=O)(=O)c1ccccc1-2 (stereo not given) | – | – | 3.26 µM [rising, partial curve, poor fit]
7 | Cc1ccc(Cl)cc1NC(=O)C1CCCN(S(=O)(=O)c2c(C)noc2C)C1 (stereo not given) | – | -6.77% | –
8 | Cn1nc(C(F)(F)F)c2cc(C(=O)Nc3ccc(F)c(Cl)c3)sc21 | 0.58 µM [rising, single point] | 27.3% | –
9 | CC1(C)Cc2c(cnn2-c2ccccc2)C(=O)/C1=N\NC(=O)c1ccccc1O | 16.4 µM [rising, partial curve] | 23.5% | –
10 | CCNc1nc(NCC)nc(SCCOc2ccc(C)cc2)n1 | 2.59 µM [rising, full curve] | 16.7% | –
11 | COc1cc(C(c2c(C)[nH][nH]c2=O)c2c(C)[nH][nH]c2=O)ccc1OS(=O)(=O)c1ccc(C)cc1 | 4.11 µM [falling, single point] | 0.724% | 0.411 µM [falling, full curve]
12 | CCc1ccccc1NC(=O)c1ccc(NS(C)(=O)=O)cc1 | 29.1 µM [falling, single point] | – | –
13 | COC(=O)C1(C)CC1(c1ccccc1)c1ccccc1 (stereo not given) | 16.4 µM [falling, partial curve, poor fit] | -40.2% | 16.4 µM [falling, partial curve, poor fit]
14 | CS(=O)(=O)NN1C(=O)c2ccccc2NC12CCCC2 | 6.51 µM [rising, partial curve, poor fit] | – | –
15 | COc1ccc(C(C(=O)NCC2CCCO2)N(C(=O)Cn2nnc3ccccc32)c2ccc(NC(C)=O)cc2)c(OC)c1 (stereo not given) | – | -24.4% | –
16 | Cc1occc1C(=O)Nc1cc(C(C)(C)C)on1 | 29.1 µM [rising, single point] | 181% | 20.6 µM [rising, partial curve]

Part of the list above in order of count of non-hydrogen atoms, largest number first:
Row | Compound | AC50 [1] | cell number change | AC50 [2]
6 | CCC1CCCCN1CCCNC(=O)c1nn(C)c2c1CS(=O)(=O)c1ccccc1-2 (stereo not given) | – | – | 3.26 µM [rising, partial curve, poor fit]
7 | Cc1ccc(Cl)cc1NC(=O)C1CCCN(S(=O)(=O)c2c(C)noc2C)C1 (stereo not given) | – | -6.77% | –
14 | CS(=O)(=O)NN1C(=O)c2ccccc2NC12CCCC2 | 6.51 µM [rising, partial curve, poor fit] | – | –
